Source: doi:10.1101/2023.02.11.528118
Results are given in words; binding and its absence hold for the method and conditions named. In cells and extracts the contact can be indirect. Some binding calls cover weakened binding; strength is not graded here.

Chains of the proteins cited; added tags and fusions are not shown.
UniProt Q4J6C6: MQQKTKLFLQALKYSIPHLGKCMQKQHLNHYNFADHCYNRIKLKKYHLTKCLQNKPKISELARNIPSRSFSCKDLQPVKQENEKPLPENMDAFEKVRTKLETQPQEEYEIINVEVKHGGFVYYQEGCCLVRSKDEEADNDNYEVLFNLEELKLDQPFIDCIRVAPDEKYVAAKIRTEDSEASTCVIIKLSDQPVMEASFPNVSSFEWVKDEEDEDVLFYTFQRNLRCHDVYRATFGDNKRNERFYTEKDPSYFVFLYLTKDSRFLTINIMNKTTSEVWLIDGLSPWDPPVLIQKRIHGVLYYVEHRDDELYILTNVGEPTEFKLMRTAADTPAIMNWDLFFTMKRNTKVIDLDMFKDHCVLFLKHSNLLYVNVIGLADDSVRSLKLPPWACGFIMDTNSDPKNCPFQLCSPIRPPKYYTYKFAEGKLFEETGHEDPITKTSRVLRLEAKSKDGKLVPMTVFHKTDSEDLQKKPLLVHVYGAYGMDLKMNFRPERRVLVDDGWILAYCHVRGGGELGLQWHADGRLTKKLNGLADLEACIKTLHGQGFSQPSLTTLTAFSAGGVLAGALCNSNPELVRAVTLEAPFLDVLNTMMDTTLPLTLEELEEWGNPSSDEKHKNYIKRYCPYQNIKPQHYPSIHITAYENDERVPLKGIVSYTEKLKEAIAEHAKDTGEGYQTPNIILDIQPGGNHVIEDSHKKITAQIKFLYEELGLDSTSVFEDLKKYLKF

Target: PREPL(L)-Flag (prolyl-endopeptidase like, long mitochondrial isoform, Flag-tagged) (human) (UniProt Q4J6C6)
Test: co-IP

binding: binds
B1: FASTKD4 (protein, UniProt Q969Z0 108-631)
chain: SHLLSEKPEDKGLLIQDAHFHQLLCLLNSQIASVWHGTLSKLLGSLYALGIPKASKELQSVEQEVRWRMRKLKYKHLAFLAESCATLSQEQHSQELLAELLTHLERRWTEIEDSHTLVTVMMKVGHLSEPLMNRLEDKCLELVEHFGPNELRKVLVMLAAQSRRSVPLLRAISYHLVQKPFSLTKDVLLDVAYAYGKLSFHQTQVSQRLATDLLSLMPSLTSGEVAHCAKSFALLKWLSLPLFEAFAQHVLNRAQDITLPHLCSVLLAFARLNFHPDQEDQFFSLVHEKLGSELPGLEPALQVDLVWALCVLQQAREAELQAVLHPEFHIQFLGGKSQKDQNTFQKLLHINATALLEYPEYSGPLLPASAVAPGPSALDRKVTPLQKELQETLKGLLGSADKGSLEVATQYGWVLDAEVLLDSDGEFLPVRDFVAPHLAQPTGSQSPPPGSKRLAFLRWEFPNFNSRSKDLLGRFVLARRHIVAAGFLIVDVPFYEWLELKSEWQKGAYLKDKMRKAVAEELAK
